Tested on: Mycobacterium tuberculosis
Assay: Antibacterial activity against drug-resistant Mycobacterium tuberculosis clinical isolates
Assay type: functional

NNC(=O)c1ccncc1 [ISONIAZID]
MIC: > 256 µg/mL
